Values from PubChem BioAssay AID686943 (Drosophila RNAi Screening Center, 2013)
The deposit covers about 23,000 reagents; below is an unselected part of those that have a named target and a result. 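Extra replicates exist only for a retested subset of genes; insulin dose and duration not given; both raised and lowered dpERK matter.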 A plus sign joins genes that one reagent is predicted to hit. Not all columns of the deposit are shown. Not given: the amount of reagent, the time to read-out.

Screen: 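Knockdowns that increase or decrease active ERK after insulin receptor stimulation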 (primary screen)
Cell system: Drosophila S2R+ haemocyte-like cells expressing YFP-tagged ERK (Rolled)
Reagent: long dsRNA against Drosophila genes
Challenge: insulin stimulation versus unstimulated cells; dose and duration not given
Detection: 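Per-plate z-scores of phospho-ERK immunostaining normalised to YFP-tagged ERK, measured with and without insulin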
Scale: replicate 1, z-score of dpERK with insulin: higher = more active ERK per ERK-YFP after insulin

replicate 1, z-score of dpERK with insulin, by target gene and reagent
VhaSFD (Vacuolar H[+]-ATPase SFD subunit): DRSC03471 -1.36
SmydA-9 (SET and MYND domain containing, arthropod-specific, member 9): DRSC17814 0.18
Dus4 (Dihydrouridine synthase 4): DRSC02066 -0.34
HDAC4 (Histone deacetylase 4): DRSC19780 1.12
Gmap (Golgi microtubule-associated protein): DRSC19988 -0.98; DRSC20057 0.4
ck (crinkled): DRSC03509 1.31
Sqor (Sulfide quinone oxidoreductase): DRSC08453 -0.21
CG14105: DRSC10107 0.38
CG33125: DRSC00145 -0.1
GluRIA (Glutamate receptor IA): DRSC11176 -0.58
veli: DRSC16276 0.93
l(1)sc (lethal of scute): DRSC18789 0.79
Gmppa (GDP-mannose pyrophosphorylase A): DRSC07108 0.35
CG5561: DRSC00688 0.7
CG13989: DRSC02321 0.31
CG33225: DRSC03881 -0.17
Mics1 (Mitochondrial morphology and cristae structure 1): DRSC12537 0.36
CG11257: DRSC06068 -0.28
CG10822: DRSC06005 0.34
CG14546: DRSC14890 0.26
CG11581: DRSC19407 -0.05
barr (barren): DRSC03488 0.87
CG10321: DRSC04061 0.46
RabX6: DRSC08223 0.46
ttm2 (tiny tim 2): DRSC08268 0.32
Odc1 (Ornithine decarboxylase 1): DRSC07482 -0.22
lncRNA:CR30121 (long non-coding RNA:CR30121): DRSC21481 0.37
Fpps (Farnesyl pyrophosphate synthase): DRSC07429 0.01
Cpr78Cb (Cuticular protein 78Cb): DRSC11847 0.5
Ugt36A1 + CG15418: DRSC00432 0

Copied from the listing for reference:
replicate 1, z-score of dpERK with insulin, by target gene and reagent
CG11257: DRSC06068 -0.28
CG10822: DRSC06005 0.34
CG14546: DRSC14890 0.26
CG11581: DRSC19407 -0.05

Continued:
replicate 1, z-score of dpERK with insulin, by target gene and reagent
VhaM9.7-c (Vacuolar H[+] ATPase M9.7 subunit c): DRSC08204 0.42
ndl (nudel): DRSC11374 -0.28
tkv + CR14033 + tRNA:Asp-GTC-2-1 + 1 more: DRSC00861 -0.38
CG5973: DRSC02918 -1.31
CG4324: DRSC04462 0.81
HP1b (Heterochromatin Protein 1b): DRSC18418 -0.54
Ube4B (Ubiquitination factor E4B): DRSC03277 -0.52
Rab35: DRSC20691 -0.79
CG7900: DRSC16336 0.87; DRSC21343 0.58
Cyp6a23 (Cytochrome P450 6a23): DRSC07383 0.9
CG32631: DRSC19768 -1.03
CG15577: DRSC18065 -0.38
eIF3f1 (eukaryotic translation initiation factor 3 subunit f1): DRSC12328 -0.51
CG6836: DRSC10722 -0.07
GstE6 (Glutathione S transferase E6): DRSC06676 0.21
CG10911: DRSC06008 1.12
RpL37-2 (Ribosomal protein L37-2): DRSC04584 0.59
LanA (Laminin A): DRSC11207 0.38
CG3407: DRSC00603 0.07
icln: DRSC07630 -0.03
CG10333: DRSC02036 -0.05
sty (sprouty): DRSC08737 1.11
CG4704: DRSC15628 -0.3
CG8401: DRSC07165 -0.28
BBS5 (Bardet-Biedl syndrome 5): DRSC12168 0.41
